# Primary screen of a compound library

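Viability assay of Plasmodium falciparum sporozoites; the read-out is not stated. The concentration is filed as 10 mM, unlikely as a test dose, so the dose is not known. Direction is inferred from retests: higher values go with lower viability. Strong results were mostly tested again. About 34,000 compounds were tested under these conditions; 0.84% (about 280) showed 50% or more at least once.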

Values are the deposited “Percent Effect”, in %.
The controls that fix the scale are not given in the record; negative values are as filed.
The compounds are a random part of those screened.
Two or more numbers in one place are separate tests of the same structure; such repeats can differ widely.

CCn1cnnc1CNC(=O)N1CCN(CC(C)C)CC1 read 10.31%.
CC(C)(C)OC(=O)N1CCC(C(=O)NCCNc2ncccn2)CC1 read 4.729%.
CCn1nc(CC(C)C)cc1C(=O)N1CCOCC(O)C1 (stereo not drawn) read 7.929%.
CCCC(=O)NC(C(=O)OC)c1cc(F)ccc1F (stereo not drawn) read 3.853%.
CN(C)C(=O)c1cnc2n1CCN(Cc1ccncc1)C2 read -0.08591%.
Cc1noc(C(C)N2CCN(Cc3nnc(C4CC4)o3)CC2)n1 (stereo not drawn) read 4.535%.
Cc1ccoc1C(=O)NCc1ccnc(OCC(F)(F)F)c1 read 1.622%.
Cc1nc(CN2CCCC(CCNS(C)(=O)=O)C2)c[nH]1 (stereo not drawn) read -3.222%.
COCCCNC(=O)NCc1nc(C)c(C)o1 read -5.562%.
CC(NC(=O)C1CCCCC1)c1cc(O)nc(-c2cccnc2)n1 (stereo not drawn) read 4.941%.
O=C(O)C(F)(F)F.[H][C@@]12CCN(Cc3ccc(F)cc3)[C@]1([H])CC[C@H](COCC1CCOCC1)O2 read 6.344%.
N#Cc1ccc(N2CCCC3(CCC(=O)N3CC3CC3)CC2)nc1.O=C(O)C(F)(F)F (stereo not drawn) read 5.907%.
Cc1nnsc1C(=O)NCc1cccnc1N(C)Cc1ccccc1 read 14.15%.
O=C(O)C(F)(F)F.[H][C@@]12COC[C@]1(CNC(=O)c1ccsc1)CN(Cc1cc(C)on1)C2 read -5.353%.
CC(C)c1nc(C2CCCN2C(=O)c2cnns2)no1 (stereo not drawn) read -10.1%.
CCc1c(C)nc2cc(C3CCN(Cc4ccc(F)cc4)C3)nn2c1O (stereo not drawn) read 13.94%.
CCn1ncc2c1NC(=O)C(C#N)C21CCCC1 (stereo not drawn) read -4.783%.
c1cnn(CC2CCCCN2Cc2noc(C3CC3)n2)c1 (stereo not drawn) read 4.734%.
NC(=O)CN1CCC(NC(=O)Nc2nccs2)CC1 read 18.04%.
Cc1nc(NC2CCOCC2)cc(C2CCN2S(C)(=O)=O)n1 (stereo not drawn) read -5.503%.
CCCS(=O)(=O)CC(=O)N1CCN(CC2CC2)c2ccccc21 read -5.441%.
CCNC(=O)[C@@H]1C[C@H](N)CN1C(=O)Cc1cc(C)ccc1C read -23.52% & -18.71%.
O=C(O)C(F)(F)F.O=C(O)C(F)(F)F.[H][C@]12CCC(=O)N(CC3CCOCC3)[C@@]1([H])CCN2Cc1ccccn1 read 5.626%.
Cc1nc(CN2CC(=O)N(C)c3ccccc3C2=O)no1 read 1.205%.
O=C(C1CCN(c2ccnc3ccc(Br)cc23)CC1)N1CCOCC1 read 4.94%.
CC(C)c1nnc2n1CCN(C(=O)c1ccc3c(c1)CCC3)C2 read 9.522%.
CC(=O)N1CCCC2(C1)CN(c1nncs1)CCO2.O=C(O)C(F)(F)F (stereo not drawn) read -0.3503%.
Cc1cc(-c2cnc(NC3CC3)nc2-c2ccco2)on1 read -11.51%.
O=C(O)C(F)(F)F.c1cncc(-c2ccc3c(c2)C2(CC3)CCN(c3nncs3)CC2)c1 read 2.526%.
N#Cc1ccc(CC(=O)N2CCC(Nc3cccnn3)CC2)cc1 read 9.951%.
Fc1ccc2[nH]c3c(c2c1)CCN1C(c2ccncc2)N2CCC31CC2 (stereo not drawn) read 12.92%.
Fc1cccc2[nH]c(CN3CCc4cncnc4C3)nc12 read -0.8881%.
O=C(Cn1c(=O)n(Cc2ccco2)c2ncccc21)NC1CC1 read 4.686%.
O=C(c1ccc2c(c1)COC2)N1CCC(Nc2ccccc2)CC1 read -10.14%.
c1nc(N2CCCC2Cn2cncn2)c2sccc2n1 (stereo not drawn) read -8.668%.
Cc1cc(-c2cnc(N3CCOCC3)nc2-c2ccc(C)s2)on1 read 1.674%.
Fc1cnc(NCC2Cn3nnc(-c4ccccc4)c3CO2)nc1 (stereo not drawn) read 4.948%.
Cc1cc(C)n(CC2CN(Cc3cnc(C)s3)CCO2)n1 (stereo not drawn) read 9.99%.
[H][C@]12CC[C@]([H])(CN(c3ncccn3)C1)N(C(=O)c1cc(F)ccc1OC)C2 read 3.421%.
CCC(CC)C(CNC(=O)Nc1ccc(C)cc1)N1CCOCC1 (stereo not drawn) read -5.181%.
COc1ccc(C2=CCN(C(=O)C3CCCN(C(C)=O)C3)CC2)cc1 (stereo not drawn) read 4.523%.
Cc1cc(NC(=O)CN2CCCC2c2noc(C(C)C)n2)on1 (stereo not drawn) read 7.427%.
CC(=O)N1CCC2(CCN(Cc3ccccn3)C2=O)C1.O=C(O)C(F)(F)F (stereo not drawn) read -14.48%.
Cc1ccc([C@@H]2CN(C(=O)c3ccoc3C)C[C@H]2NC(=O)C2CC2)cc1 read 4.961%.
O=C(O)C(F)(F)F.[H][C@@]12C[C@@H](C)O[C@]1([H])CN(S(=O)(=O)c1c(C)nn(C)c1C)C2 read 16.55%.
Cc1cc(C)n(CC2CCCCN2CC(=O)Nc2cccnc2)n1 (stereo not drawn) read 9.871%.
CN(Cc1n[nH]c2c1CCCC2)c1nc(C2CC2)nc2c1CCNCC2 read 16.77%.
Cc1noc(CCCC(=O)NC(C)c2ccccn2)n1 (stereo not drawn) read 9.068%.
c1ccc(-c2nc(CN3CCn4c(nnc4C4CC4)C3)co2)cc1 read 7.098%.

Some entries from above, unchanged:

| compound | effect |
|---|---|
| `Cc1cc(-c2cnc(NC3CC3)nc2-c2ccco2)on1` | -11.51 |
| `Cc1cc(-c2cnc(N3CCOCC3)nc2-c2ccc(C)s2)on1` | 1.674 |
| `Fc1cccc2[nH]c(CN3CCc4cncnc4C3)nc12` | -0.8881 |
| `CN(Cc1n[nH]c2c1CCCC2)c1nc(C2CC2)nc2c1CCNCC2` | 16.77 |
| `CCn1nc(CC(C)C)cc1C(=O)N1CCOCC(O)C1` (stereo not drawn) | 7.929 |

The values are deposited in ChEMBL (CHEMBL3988442, “University of Dundee, Small-Polar-MMV Screening Library” (2021)).